From article PMC11192907
Results are given in words; binding and its absence hold for the method and conditions named. Binding seen in cells or lysates may run through a third protein. Some binding calls cover weakened binding; strength is not graded here. For part of these data: Tags and fused reporters may be left off the sequences shown. Each block holds one substance with its values, some of them ahead of it.

Sequences of proteins named here, by UniProt entry; tags and fusion partners are left off. A change or cut given only in a name is not applied to a line headed by its entry. A line that says so, or that is headed by a name, gives the form on record, which may keep a tag or linker.
UniProt Q13283: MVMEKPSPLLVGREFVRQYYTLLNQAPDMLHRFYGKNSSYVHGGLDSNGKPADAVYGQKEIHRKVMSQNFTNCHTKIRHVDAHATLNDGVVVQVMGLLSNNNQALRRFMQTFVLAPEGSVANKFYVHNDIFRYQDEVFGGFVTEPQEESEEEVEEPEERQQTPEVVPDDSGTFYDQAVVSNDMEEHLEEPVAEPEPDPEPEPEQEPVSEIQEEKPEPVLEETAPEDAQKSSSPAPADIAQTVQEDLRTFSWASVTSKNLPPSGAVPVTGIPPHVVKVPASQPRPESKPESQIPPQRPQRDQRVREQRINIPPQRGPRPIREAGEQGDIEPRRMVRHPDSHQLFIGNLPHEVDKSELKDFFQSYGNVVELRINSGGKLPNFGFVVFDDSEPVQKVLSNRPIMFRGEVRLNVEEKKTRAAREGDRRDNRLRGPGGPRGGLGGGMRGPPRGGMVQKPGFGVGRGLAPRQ
HA-G3BP1-Δ1 lacking the domain of nuclear transport factor 2 (NTF2) (11-133 aa) (Q13283, form named): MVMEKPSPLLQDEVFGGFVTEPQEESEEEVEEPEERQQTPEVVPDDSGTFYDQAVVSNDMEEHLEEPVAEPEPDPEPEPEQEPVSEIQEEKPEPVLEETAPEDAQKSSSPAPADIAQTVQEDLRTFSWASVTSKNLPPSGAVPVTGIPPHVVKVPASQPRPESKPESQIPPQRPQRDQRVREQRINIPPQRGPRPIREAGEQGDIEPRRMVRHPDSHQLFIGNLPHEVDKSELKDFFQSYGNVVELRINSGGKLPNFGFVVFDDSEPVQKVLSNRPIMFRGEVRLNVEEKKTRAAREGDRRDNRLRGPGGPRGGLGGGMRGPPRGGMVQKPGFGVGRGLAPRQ

What was measured:
[1] = molecular target: T1, Ubiquitin Specific Peptidase 21 (USP21), endogenous (human (endogenous in KYSE-150 and Eca-109)) (UniProt Q9UK80); assay: co-IP; endogenous proteins in KYSE-150 and Eca-109 lysates; IP with antibody against G3BP1 or USP21, Protein A Agarose, immunoblotting
T1 sequence: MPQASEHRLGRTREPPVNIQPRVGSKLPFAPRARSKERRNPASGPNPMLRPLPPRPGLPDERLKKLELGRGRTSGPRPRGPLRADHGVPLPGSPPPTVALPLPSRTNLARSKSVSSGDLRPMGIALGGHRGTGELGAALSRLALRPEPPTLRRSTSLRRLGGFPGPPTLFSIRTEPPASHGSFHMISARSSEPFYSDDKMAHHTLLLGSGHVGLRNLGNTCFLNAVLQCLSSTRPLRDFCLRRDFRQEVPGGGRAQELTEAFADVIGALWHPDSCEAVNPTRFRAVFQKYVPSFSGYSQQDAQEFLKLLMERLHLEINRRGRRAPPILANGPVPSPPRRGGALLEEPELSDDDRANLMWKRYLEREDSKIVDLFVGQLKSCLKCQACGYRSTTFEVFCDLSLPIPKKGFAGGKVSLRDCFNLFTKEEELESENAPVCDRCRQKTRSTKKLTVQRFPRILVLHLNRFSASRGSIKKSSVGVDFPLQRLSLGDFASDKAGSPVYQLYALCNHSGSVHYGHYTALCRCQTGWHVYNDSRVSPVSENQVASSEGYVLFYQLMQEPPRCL

[2] = molecular target: T2, Flag-USP21^WT (UniProt Q9UK80); assay: co-IP; HEK293T cells transfected with Flag-USP21^WT and HA-G3BP1^WT plasmids; IP with Flag or HA antibody, immunoblotting
T2 sequence: T1 sequence

[3] = molecular target: T2, Flag-USP21^WT; assay: co-IP; truncated USP21 with G3BP1^WT (Fig. 3E) or USP21^WT with truncated G3BP1 (Fig. 3F); IP with HA or Flag antibody, immunoblotting; cell line not stated

binding [1]: binds
Substance: G3BP Stress Granule Assembly Factor 1 (G3BP1), endogenous (from UniProt Q13283 1-466)

binding [2]: binds
Substance: HA-G3BP1^WT (from UniProt Q13283 1-466)

binding [3]: no binding
Substance: HA-G3BP1-Δ1 lacking the domain of nuclear transport factor 2 (NTF2) (11-133 aa) (from UniProt Q13283 1-466)
